The structures appear in SMILES notation. This is one part of the list. Many values rest on one well or one pass, so single values are uncertain.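 Cells were imaged in 1,536-well plates, and nuclei stained with an antibody against cleaved PARP were counted against all DNA-stained nuclei to give the apoptosis fraction. Screening doses were chosen to leave most cells alive, and resting and induced cleaved-PARP levels differ strongly between cell lines.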

The test system of this assay is MZ2-MEL. As to the kind of experiment: cleaved PARP positive nuclei fraction relative to DMSO control; melanoma cells; higher = more apoptosis. Conditions: library dose: low library concentration; 72 h.
On to `C[C@]12O[C@H](C[C@]1(O)CO)n1c3ccccc3c3c4c(c5c6ccccc6n2c5c31)CNC4=O` [Lestaurtinib] + CCN(CC)CCCCNc1ncc2cc(-c3cc(OC)cc(OC)c3)c(NC(=O)NC(C)(C)C)nc2n1 [PD173074] (first compound 0.004 µM, partner dose 0.1 µM), for which the “cleaved PARP positive nuclei fraction” value stood at 78.6%.
The result for `N#Cc1c(O)c2c(-c3ccc(-c4ccccc4O)cc3)csc2[nH]c1=O` + O=C(Oc1ccc([N+](=O)[O-])cc1)N1CCC(C(O)(c2ccc3c(c2)OCO3)c2ccc3c(c2)OCO3)CC1 [JZL184] (first compound 2 µM, partner dose 1 µM) reads 68%; that for `C[C@]12O[C@H](C[C@]1(O)CO)n1c3ccccc3c3c4c(c5c6ccccc6n2c5c31)CNC4=O` [Lestaurtinib] + O=c1cc(-c2cccc3c2Sc2ccccc2S3)oc(N2CCOCC2)c1 [KU55933] (first compound 0.004 µM, partner dose 1 µM), 119%.
As for `CCc1ccc(CCOc2ccc(CC3SC(=O)NC3=O)cc2)nc1` (centres undefined) [pioglitazone] + O=C(Oc1ccc([N+](=O)[O-])cc1)N1CCC(C(O)(c2ccc3c(c2)OCO3)c2ccc3c(c2)OCO3)CC1 [JZL184] (first compound 2 µM, partner dose 1 µM), the “cleaved PARP positive nuclei fraction” value turned out to be 73.4%.
The result for `COc1cc2c(Oc3ccc4[nH]c(C)cc4c3F)ncnc2cc1OCCCN1CCCC1` [cediranib] + Cc1cc(SCc2sc(-c3ccc(C(F)(F)F)c(F)c3)nc2C)ccc1OCC(=O)O [GW0742] (first compound 0.4 µM, partner dose 2 µM) reads 137%; that for `Cc1cc(SCc2sc(-c3ccc(C(F)(F)F)c(F)c3)nc2C)ccc1OCC(=O)O` + O=C(Oc1ccc([N+](=O)[O-])cc1)N1CCC(C(O)(c2ccc3c(c2)OCO3)c2ccc3c(c2)OCO3)CC1 [JZL184] (first compound 2 µM, partner dose 1 µM), 58.1%.
Then `Cc1cc(SCc2sc(-c3ccc(C(F)(F)F)c(F)c3)nc2C)ccc1OCC(=O)O` + COc1cc(N2CCC(N3CCN(C)CC3)CC2)ccc1Nc1ncc(Cl)c(Nc2ccccc2S(=O)(=O)C(C)C)n1 [NVP-TAE684] (first compound 2 µM, partner dose 0.08 µM), with 118%; and `C[C@]12O[C@H](C[C@]1(O)CO)n1c3ccccc3c3c4c(c5c6ccccc6n2c5c31)CNC4=O` [Lestaurtinib] + COC(=O)c1sccc1S(=O)(=O)Nc1ccc(Nc2ccccc2)cc1OC [GSK0660] (first compound 0.004 µM, partner dose 1 µM), with 137%.
For the compound `C[C@]12O[C@H](C[C@]1(O)CO)n1c3ccccc3c3c4c(c5c6ccccc6n2c5c31)CNC4=O` [Lestaurtinib] + CC1(C)NC(=O)N(c2ccc([N+](=O)[O-])c(C(F)(F)F)c2)C1=O [nilutamide] (first compound 0.004 µM, partner dose 1 µM), the “cleaved PARP positive nuclei fraction” value was 65.1%.
The result for `O=C1NC(=O)/C(=C/c2ccc(-c3ccc(F)cc3O)o2)S1` + O=C(Oc1ccc([N+](=O)[O-])cc1)N1CCC(C(O)(c2ccc3c(c2)OCO3)c2ccc3c(c2)OCO3)CC1 [JZL184] (first compound 1 µM, partner dose 1 µM) reads 73.9%; that for `Oc1cc(-c2nc(-c3ccccc3)[nH]c2-c2ccncc2)ccc1Cl` + O=C(Oc1ccc([N+](=O)[O-])cc1)N1CCC(C(O)(c2ccc3c(c2)OCO3)c2ccc3c(c2)OCO3)CC1 [JZL184] (first compound 0.2 µM, partner dose 1 µM), 126%; that for `C[C@]12O[C@H](C[C@]1(O)CO)n1c3ccccc3c3c4c(c5c6ccccc6n2c5c31)CNC4=O` [Lestaurtinib] + O=S(=O)(c1ccccc1)N(CC(F)(F)F)c1ccc(C(O)(C(F)(F)F)C(F)(F)F)cc1 [T0901317] (first compound 0.004 µM, partner dose 1.4 µM), 74.2%.
With `NCC(=O)Nc1ccc(-n2nc(C(F)(F)F)cc2-c2ccc3c(ccc4ccccc43)c2)cc1` + O=C(Oc1ccc([N+](=O)[O-])cc1)N1CCC(C(O)(c2ccc3c(c2)OCO3)c2ccc3c(c2)OCO3)CC1 [JZL184] (first compound 1 µM, partner dose 1 µM), the “cleaved PARP positive nuclei fraction” value stood at 130%.
Regarding `C[C@@H]1CCN(C(=O)CC#N)C[C@@H]1N(C)c1ncnc2[nH]ccc12` + C/C(O)=C(\C#N)C(=O)Nc1cc(Br)ccc1Br [LFM-A13] (first compound 1 µM, partner dose 2 µM), the “cleaved PARP positive nuclei fraction” value was found to be 90.6%.

The values above are taken from the supplement of paper PMC4604168 (melanoma cell lines).
